Measurements: patent EP4796567A2
No constants are given. Whether binding was seen depends on the method and setting. Some results given as binding are weak or reduced against the parent protein; the word gives no strength.

By UniProt entry, the sequences of proteins in these tests, tags left out. Where a name states a change or a piece, a line headed by the entry shows the natural chain unless it says otherwise.
UniProt P11912: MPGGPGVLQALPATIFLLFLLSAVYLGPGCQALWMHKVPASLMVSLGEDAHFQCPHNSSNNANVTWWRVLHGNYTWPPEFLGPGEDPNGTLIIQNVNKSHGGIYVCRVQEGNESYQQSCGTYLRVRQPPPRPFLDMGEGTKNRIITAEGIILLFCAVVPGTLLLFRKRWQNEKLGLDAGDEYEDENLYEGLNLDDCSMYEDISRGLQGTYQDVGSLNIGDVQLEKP

Assays:
CD79 [1] = target: CD79 (UniProt P11912); assay: competition ELISA of phage library clones, compared with parent H1L2
CD79 [2] = target: CD79 (UniProt P11912); assay: confirmatory dilution ELISA
CD79 [3] = target: CD79 (UniProt P11912); assay: binding kinetics of full length IgG (Table 2)
CD79 [4] = target: CD79 (UniProt P11912); assay: binding kinetics
CD79 [5] = target: CD79 (UniProt P11912); assay: antigen binding kinetics (Table 3)

B1: phage display clone LB511-B6 (light chain CDR3 library, paired with H1) (antibody, V domains shown)
VH: QVQLVQSGAEVKKPGASVKVSCKASGYAFSYSWMNWVRQAPGQGLEWMGRIYPENGDTNYNGKFKGRVTMTRDTSISTAYMELSRLRSDDTAVYYCARWVYGYPHFDYWGQGTLVTVSS
VL: DVVMTQSPLSLPVTLGQPASISCKSSQSLLDSDGKTYLNWLQQRPGQSPRRLIYLVSKLDSGVPDRFSGSGSGTDFTLKISRVEAEDVGVYYCWQGTHVPFTFGGGTKVEIK
**Q.** With B1 as the binder, how does the binding (CD79 [1]) read?
**A.** binds

**Q.** What about the binding (CD79 [2]) of the same binder?
**A.** binds

B2: phage display clone LB511-F6 (light chain CDR3 library, paired with H1) (antibody, V domains shown)
VH: QVQLVQSGAEVKKPGASVKVSCKASGYAFSYSWMNWVRQAPGQGLEWMGRIYPENGDTNYNGKFKGRVTMTRDTSISTAYMELSRLRSDDTAVYYCARWVYGYPHFDYWGQGTLVTVSS
VL: DVVMTQSPLSLPVTLGQPASISCKSSQSLLDSDGKTYLNWLQQRPGQSPRRLIYLVSKLDSGVPDRFSGSGSGTDFTLKISRVEAEDVGVYYCWQGTHLPFTFGGGTKVEIK
**Q.** With B2 as the binder, how does the binding (CD79 [1]) read?
**A.** binds

**Q.** And the binding (CD79 [2])?
**A.** binds

B3: phage display clone LB511-F11 (light chain CDR3 library, paired with H1) (antibody, V domains shown)
VH: QVQLVQSGAEVKKPGASVKVSCKASGYAFSYSWMNWVRQAPGQGLEWMGRIYPENGDTNYNGKFKGRVTMTRDTSISTAYMELSRLRSDDTAVYYCARWVYGYPHFDYWGQGTLVTVSS
VL: DVVMTQSPLSLPVTLGQPASISCKSSQSLLDSDGKTYLNWLQQRPGQSPRRLIYLVSKLDSGVPDRFSGSGSGTDFTLKISRVEAEDVGVYYCWQGTHRPFTFGGGTKVEIK
**Q.** What does the source list for B3?
**A.** binding (CD79 [1]): binds; binding (CD79 [2]): binds

B4: phage display clone LB510-C7 (heavy chain library, paired with L2) (antibody, V domains shown)
VH: QVQLVQSGAEVKKPGASVKVSCKASGYAFGYSWMNWVRQAPGQGLEWMGRIYPENGDTNYNGKFKGRVTMTRDTSISTAYMELSRLRSDDTAVYYCARWVYGYPHFDYWGQGTLVTVSS
VL: DVVMTQSPLSLPVTLGQPASISCKSSQSLLDSDGKTYLNWLQQRPGQSPRRLIYLVSKLDSGVPDRFSGSGSGTDFTLKISRVEAEDVGVYYCWQGTHFPFTFGGGTKVEIK
**Q.** Which binding (CD79 [1]) does the source give for B4 here?
**A.** binds

B5: phage display clone LB510-G5 (heavy chain library, paired with L2) (antibody, V domains shown)
VH: QVQLVQSGAEVKKPGASVKVSCKASGYAFSYSWVNWVRQAPGQGLEWMGRIYPENGDTNYNGKFKGRVTMTRDTSISTAYMELSRLRSDDTAVYYCARWVYGYPHFDYWGQGTLVTVSS
VL: DVVMTQSPLSLPVTLGQPASISCKSSQSLLDSDGKTYLNWLQQRPGQSPRRLIYLVSKLDSGVPDRFSGSGSGTDFTLKISRVEAEDVGVYYCWQGTHFPFTFGGGTKVEIK
**Q.** With B5 as the binder, how does the binding (CD79 [1]) read?
**A.** binds

B6: phage display clone LB512-A7 (light chain library, paired with H1) (antibody, V domains shown)
VH: QVQLVQSGAEVKKPGASVKVSCKASGYAFSYSWMNWVRQAPGQGLEWMGRIYPENGDTNYNGKFKGRVTMTRDTSISTAYMELSRLRSDDTAVYYCARWVYGYPHFDYWGQGTLVTVSS
VL: DVVMTQSPLSLPVTLGLPASISCKSSQSLLDSDGKTYLNWLQQRPGQSPRRLIYLVSKLDSGVPDRFSGSGSGTDFTLKISRVEAEDVGVYYCWQGTHFPFTFGGGTKVEIK
**Q.** For B6, which binding (CD79 [1]) is on record?
**A.** binds

B7: phage display clone LB509-C2 (heavy chain CDR3 library, paired with L2) (antibody, V domains shown)
VH: QVQLVQSGAEVKKPGASVKVSCKASGYAFSYSWMNWVRQAPGQGLEWMGRIYPENGDTNYNGKFKGRVTMTRDTSISTAYMELSRLRSDDTAVYYCARWVYGLPHFDYWGQGTLVTVSS
VL: DVVMTQSPLSLPVTLGQPASISCKSSQSLLDSDGKTYLNWLQQRPGQSPRRLIYLVSKLDSGVPDRFSGSGSGTDFTLKISRVEAEDVGVYYCWQGTHFPFTFGGGTKVEIK
**Q.** Which binding (CD79 [1]) does the source give for B7 here?
**A.** binds

**Q.** And the binding (CD79 [2])?
**A.** binds

B8: phage display clone LB511-A9 (light chain CDR3 library, paired with H1) (antibody, V domains shown)
VH: QVQLVQSGAEVKKPGASVKVSCKASGYAFSYSWMNWVRQAPGQGLEWMGRIYPENGDTNYNGKFKGRVTMTRDTSISTAYMELSRLRSDDTAVYYCARWVYGYPHFDYWGQGTLVTVSS
VL: DVVMTQSPLSLPVTLGQPASISCKSSQSLLDSDGKTYLNWLQQRPGQSPRRLIYLVSKLDSGVPDRFSGSGSGTDFTLKISRVEAEDVGVYYCWQGTHIPFTFGGGTKVEIK
**Q.** B8 was tested. Which binding (CD79 [1]) did it give?
**A.** binds

**Q.** And the binding (CD79 [2])?
**A.** binds

B9: affinity matured anti-CD79 antibody LB517/PRI47 (antibody, V domains shown)
VH: QVQLVQSGAEVKKPGASVKVSCKASGYAFSYSWMNWVRQAPGQGLEWMGRIYPENGDTNYNGKFKGRVTMTRDTSISTAYMELSRLRSDDTAVYYCARWVYGLPHFDYWGQGTLVTVSS
VL: DVVMTQSPLSLPVTLGQPASISCKSSQSLLDSDGKTYLNWLQQRPGQSPRRLIYLVSKLDSGVPDRFSGSGSGTDFTLKISRVEAEDVGVYYCWQGTHFPFTFGGGTKVEIK
**Q.** Which results are given for B9?
**A.** binding (CD79 [3]): binds; binding (CD79 [4]): binds

B10: affinity matured anti-CD79 antibody LB495/518 (antibody, V domains shown)
VH: QVQLVQSGAEVKKPGASVKVSCKASGYAFSYSWMNWVRQAPGQGLEWMGRIYPENGDTNYNGKFKGRVTMTRDTSISTAYMELSRLRSDDTAVYYCARWVYGYPHFDYWGQGTLVTVSS
VL: DVVMTQSPLSLPVTLGQPASISCKSSQSLLDSDGKTYLNWLQQRPGQSPRRLIYLVSKLDSGVPDRFSGSGSGTDFTLKISRVEAEDVGVYYCWQGTHIPFTFGGGTKVEIK
**Q.** Which results are given for B10?
**A.** binding (CD79 [3]): binds; binding (CD79 [4]): binds

B11: affinity matured anti-CD79 antibody LB495/519 (antibody, V domains shown)
VH: QVQLVQSGAEVKKPGASVKVSCKASGYAFSYSWMNWVRQAPGQGLEWMGRIYPENGDTNYNGKFKGRVTMTRDTSISTAYMELSRLRSDDTAVYYCARWVYGYPHFDYWGQGTLVTVSS
VL: DVVMTQSPLSLPVTLGQPASISCKSSQSLLDSDGKTYLNWLQQRPGQSPRRLIYLVSKLDSGVPDRFSGSGSGTDFTLKISRVEAEDVGVYYCWQGTHLPFTFGGGTKVEIK
**Q.** Which binding (CD79 [3]) does the source give for B11 here?
**A.** binds

**Q.** And the binding (CD79 [4])?
**A.** binds

B12: affinity matured anti-CD79 antibody LB495/520 (antibody, V domains shown)
VH: QVQLVQSGAEVKKPGASVKVSCKASGYAFSYSWMNWVRQAPGQGLEWMGRIYPENGDTNYNGKFKGRVTMTRDTSISTAYMELSRLRSDDTAVYYCARWVYGYPHFDYWGQGTLVTVSS
VL: DVVMTQSPLSLPVTLGQPASISCKSSQSLLDSDGKTYLNWLQQRPGQSPRRLIYLVSKLDSGVPDRFSGSGSGTDFTLKISRVEAEDVGVYYCWQGTHRPFTFGGGTKVEIK
**Q.** How did the binding (CD79 [3]) turn out when B12 was run?
**A.** binds

**Q.** And the binding (CD79 [4])?
**A.** binds

B13: affinity matured anti-CD79 antibody LB495/521 (antibody, V domains shown)
VH: QVQLVQSGAEVKKPGASVKVSCKASGYAFSYSWMNWVRQAPGQGLEWMGRIYPENGDTNYNGKFKGRVTMTRDTSISTAYMELSRLRSDDTAVYYCARWVYGYPHFDYWGQGTLVTVSS
VL: DVVMTQSPLSLPVTLGQPASISCKSSQSLLDSDGKTYLNWLQQRPGQSPRRLIYLVSKLDSGVPDRFSGSGSGTDFTLKISRVEAEDVGVYYCWQGTHVPFTFGGGTKVEIK
**Q.** Which results are given for B13?
**A.** binding (CD79 [3]): binds; binding (CD79 [4]): binds

B14: affinity matured anti-CD79 antibody LB517/518 (antibody, V domains shown)
VH: QVQLVQSGAEVKKPGASVKVSCKASGYAFSYSWMNWVRQAPGQGLEWMGRIYPENGDTNYNGKFKGRVTMTRDTSISTAYMELSRLRSDDTAVYYCARWVYGLPHFDYWGQGTLVTVSS
VL: DVVMTQSPLSLPVTLGQPASISCKSSQSLLDSDGKTYLNWLQQRPGQSPRRLIYLVSKLDSGVPDRFSGSGSGTDFTLKISRVEAEDVGVYYCWQGTHIPFTFGGGTKVEIK
**Q.** With B14 as the binder, how does the binding (CD79 [3]) read?
**A.** binds

**Q.** And the binding (CD79 [4])?
**A.** binds

B15: humanized anti-CD79 antibody LB517/LB519 (antibody, V domains shown)
VH: QVQLVQSGAEVKKPGASVKVSCKASGYAFSYSWMNWVRQAPGQGLEWMGRIYPENGDTNYNGKFKGRVTMTRDTSISTAYMELSRLRSDDTAVYYCARWVYGLPHFDYWGQGTLVTVSS
VL: DVVMTQSPLSLPVTLGQPASISCKSSQSLLDSDGKTYLNWLQQRPGQSPRRLIYLVSKLDSGVPDRFSGSGSGTDFTLKISRVEAEDVGVYYCWQGTHLPFTFGGGTKVEIK
**Q.** Which binding (CD79 [3]) does the source give for B15 here?
**A.** binds

**Q.** And the binding (CD79 [4])?
**A.** binds

B16: affinity matured anti-CD79 antibody LB517/520 (antibody, V domains shown)
VH: QVQLVQSGAEVKKPGASVKVSCKASGYAFSYSWMNWVRQAPGQGLEWMGRIYPENGDTNYNGKFKGRVTMTRDTSISTAYMELSRLRSDDTAVYYCARWVYGLPHFDYWGQGTLVTVSS
VL: DVVMTQSPLSLPVTLGQPASISCKSSQSLLDSDGKTYLNWLQQRPGQSPRRLIYLVSKLDSGVPDRFSGSGSGTDFTLKISRVEAEDVGVYYCWQGTHRPFTFGGGTKVEIK
**Q.** What does the source list for B16?
**A.** binding (CD79 [3]): binds; binding (CD79 [4]): binds

B17: affinity matured anti-CD79 antibody LB517/521 (antibody, V domains shown)
VH: QVQLVQSGAEVKKPGASVKVSCKASGYAFSYSWMNWVRQAPGQGLEWMGRIYPENGDTNYNGKFKGRVTMTRDTSISTAYMELSRLRSDDTAVYYCARWVYGLPHFDYWGQGTLVTVSS
VL: DVVMTQSPLSLPVTLGQPASISCKSSQSLLDSDGKTYLNWLQQRPGQSPRRLIYLVSKLDSGVPDRFSGSGSGTDFTLKISRVEAEDVGVYYCWQGTHVPFTFGGGTKVEIK
**Q.** With B17 as the binder, how does the binding (CD79 [3]) read?
**A.** binds

**Q.** And the binding (CD79 [4])?
**A.** binds

B18: engineered anti-CD79 antibody LB631/519 (antibody, V domains shown)
VH: QVQLVQSGAEVKKPGASVKVSCKASGYAFSYSWMNWVRQAPGQGLEWMGRIYPENGDTNYAGKFKGRVTMTRDTSISTAYMELSRLRSDDTAVYYCARWVYGLPHFDYWGQGTLVTVSS
VL: DVVMTQSPLSLPVTLGQPASISCKSSQSLLDSDGKTYLNWLQQRPGQSPRRLIYLVSKLDSGVPDRFSGSGSGTDFTLKISRVEAEDVGVYYCWQGTHLPFTFGGGTKVEIK
**Q.** How did the binding (CD79 [5]) turn out when B18 was run?
**A.** binds

B19: engineered anti-CD79 antibody LB632/519 (antibody, V domains shown)
VH: QVQLVQSGAEVKKPGASVKVSCKASGYAFSYSWMNWVRQAPGQGLEWMGRIYPESGDTNYAGKFKGRVTMTRDTSISTAYMELSRLRSDDTAVYYCARWVYGLPHFDYWGQGTLVTVSS
VL: DVVMTQSPLSLPVTLGQPASISCKSSQSLLDSDGKTYLNWLQQRPGQSPRRLIYLVSKLDSGVPDRFSGSGSGTDFTLKISRVEAEDVGVYYCWQGTHLPFTFGGGTKVEIK
**Q.** B19 was tested. Which binding (CD79 [5]) did it give?
**A.** binds

B20: phage display clone LB509-G2 (heavy chain CDR3 library, paired with L2) (antibody, V domains shown)
VH: QVQLVQSGAEVKKPGASVKVSCKASGYAFSYSWMNWVRQAPGQGLEWMGRIYPENGDTNYNGKFKGRVTMTRDTSISTAYMELSRLRSDDTAVYYCARWVYGYPHLDYWGQGTLVTVSS
VL: DVVMTQSPLSLPVTLGQPASISCKSSQSLLDSDGKTYLNWLQQRPGQSPRRLIYLVSKLDSGVPDRFSGSGSGTDFTLKISRVEAEDVGVYYCWQGTHFPFTFGGGTKVEIK
**Q.** Which binding (CD79 [1]) does the source give for B20 here?
**A.** binds
